Entries after “also recorded” stand apart in the source; their conditions may differ.
Test system: tirzepatide
Assay: Solution NMR (1H-13C HSQC, ligand-observed NMR) of the interaction between tirzepatide and preservatives
Type: binding

| SMILES | interaction of preservative with tirzepatide (1H-13C HSQC spectrum overlay, NMR) |
| --- | --- |
| OCc1ccccc1 [benzyl alcohol] | No significant differences between the spectra; also recorded: no significant interaction with tirzepatide |
| Oc1ccccc1 [phenol] | Significant differences between the spectra |
